Data source: PubChem BioAssay AID1259308 (NCATS, 2017)
Screen: 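Candidate targets for better recombinant protein yield in mammalian cells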 (primary screen). Cell system: human HEK293 embryonic kidney cells stably expressing firefly luciferase (HEK-CMV-Luc2-Hygro). Reagents: single siRNA against human genes, 0.8 pmol siRNA per well. Duration: 72 h. Detection: 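Luciferase light (ONE-Glo) measured on one replicate plate set and viability (CellTiter-Glo) on the other, scaled to a negative control siRNA, with robust z-scores and luciferase per cell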. Reading the numbers: total luciferase, z-score and total luciferase, % of control: higher = more reporter protein produced. Rule for the call: 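Active when the median/MAD z-score for overall luciferase is greater than 3; a gene was taken forward for validation with new siRNAs if at least two of its three siRNAs passed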. Meaning of the calls: active = raised luciferase; inactive = no rise.
This is a random part of about 59,000 deposited reagents. About 1,510 of all reagents (2.6%) were called active. 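Calls use total luciferase alone and ignore viability, so some active siRNAs may act by altering cell number.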 Entries without a mark were called inactive. The numbers tell different reagents against one gene apart. Further read-outs or replicates are left out here. Reagent sequences are not shown.

With RTP2 (receptor transporter protein 2) #1, what was measured?
total luciferase, z-score: 0.638; total luciferase, % of control: 94.6

What is on record for RTP2 (receptor transporter protein 2) #2?
total luciferase, z-score: -0.0304; total luciferase, % of control: 81.3

For RTP2 (receptor transporter protein 2) #3, how do the results read?
total luciferase, z-score: -0.115; total luciferase, % of control: 79.6

For ASPHD2 (aspartate beta-hydroxylase domain containing 2) #1, what does the deposit list?
total luciferase, z-score: -0.461; total luciferase, % of control: 72.7

What did the screen give for ASPHD2 (aspartate beta-hydroxylase domain containing 2) #2?
total luciferase, z-score: -0.6; total luciferase, % of control: 70

For ASPHD2 (aspartate beta-hydroxylase domain containing 2) #3, what does the deposit list?
total luciferase, z-score: -1.56; total luciferase, % of control: 50.8

How did the screen score SRL (sarcalumenin) #1?
total luciferase, z-score: -0.18; total luciferase, % of control: 78.3

For SRL (sarcalumenin) #2, what was measured?
total luciferase, z-score: 1.23; total luciferase, % of control: 106

How did the screen score SRL (sarcalumenin) #3?
total luciferase, z-score: -1.14; total luciferase, % of control: 59.3

For PNMA8A (PNMA family member 8A) #1, what does the deposit list?
total luciferase, z-score: 0.878; total luciferase, % of control: 99.4

With PNMA8A (PNMA family member 8A) #2, what does the deposit list?
total luciferase, z-score: 0.174; total luciferase, % of control: 85.3

With PNMA8A (PNMA family member 8A) #3, how do the results read?
total luciferase, z-score: 0.327; total luciferase, % of control: 88.4
